This note sets out measurements from article PMC5061727.

This experiment addresses T1, CD166 (human (endogenous in THP-1 and Raji)) (UniProt Q13740).
T1 sequence: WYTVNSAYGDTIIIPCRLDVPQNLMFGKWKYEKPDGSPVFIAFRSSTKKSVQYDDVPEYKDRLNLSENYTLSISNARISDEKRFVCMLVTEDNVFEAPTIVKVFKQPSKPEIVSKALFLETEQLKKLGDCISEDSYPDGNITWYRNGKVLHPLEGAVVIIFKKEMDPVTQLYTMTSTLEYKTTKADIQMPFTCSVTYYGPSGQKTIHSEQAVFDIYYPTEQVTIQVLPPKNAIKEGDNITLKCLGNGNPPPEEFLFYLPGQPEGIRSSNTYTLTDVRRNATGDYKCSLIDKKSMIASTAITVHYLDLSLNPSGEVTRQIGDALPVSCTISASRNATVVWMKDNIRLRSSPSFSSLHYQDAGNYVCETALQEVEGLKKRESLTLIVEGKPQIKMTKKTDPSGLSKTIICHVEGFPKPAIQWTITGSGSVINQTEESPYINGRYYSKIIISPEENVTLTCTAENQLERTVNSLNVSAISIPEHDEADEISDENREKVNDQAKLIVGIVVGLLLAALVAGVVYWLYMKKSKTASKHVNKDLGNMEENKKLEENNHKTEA
Description: flow cytometry on cells; cell lines (Jurkat, K562, THP-1, Raji) incubated with sCD6 tetramers or sCD58 tetramers; streptavidin-PE as control; only the binder purified.

These are yes or no findings as the source states them, for the method shown. Some binding calls cover weakened binding; strength is not graded here. Sequences can lack the tags named with a protein.

B1: soluble extracellular domain of CD6 (HA-sCD6-BirA-His), as tetramers (domain or fragment, UniProt P30203 18-402)
chain: HPSPAPPDQLNTSSAESELWEPGERLPVRLTNGSSSCSGTVEVRLEASWEPACGALWDSRAAEAVCRALGCGGAEAASQLAPPTPELPPPPAAGNTSVAANATLAGAPALLCSGAEWRLCEVVEHACRSDGRRARVTCAENRALRLVDGGGACAGRVEMLEHGEWGSVCDDTWDLEDAHVVCRQLGCGWAVQALPGLHFTPGRGPIHRDQVNCSGAEAYLWDCPGLPGQHYCGHKEDAGAVCSEHQSWRLTGGADRCEGQVEVHFRGVWNTVCDSEWYPSEAKVLCQSLGCGTAVERPKGLPHSLSGRMYYSCNGEELTLSNCSWRFNNSNLCSQSLAARVLCSASRSLHNLSTPEVPASVQTVTIESSVTVKIENKESRELMLL
With B1, the binding entry is “binds”.
